Measurements taken from the supplement of paper PMC7661543.
The effect of the compound repeats well; differences between the knockouts mostly do not.

Assays:
Test in all cases: relative cell number vs DMSO control (72 h) (% of DMSO); higher = less growth inhibition (more cells)
[1] = test system: BT-20
Procedure: (§1)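 QMAP-Seq: a pool of 5 breast cancer cell lines (ZR-75-1, SKBR3, HCC-38, MDA-MB-231, BT-20), each carrying 12 doxycycline-inducible Cas9 sgRNA perturbations (11 knockouts plus non-targeting sgNT), was treated with compounds for 72 h at four 10-fold doses (10 nM-10 uM or 1 nM-1 uM range). Barcodes were amplified and sequenced, and cell number was interpolated from 293T spike-in standard curves. The result is expressed as % of the median of DMSO wells. Two biological replicates.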

[2] = test system: SKBR3
Procedure: as §1

[3] = test system: ZR-75-1
Procedure: as §1

COc1cc2ncnc(Nc3ccc(F)c(Cl)c3)c2cc1OCCCN1CCOCC1 [Gefitinib]
relative cell number
Details | [1] | [2] | [3]
sgRNA knockout: sgATF3, 10 nM | 90.9 | 107 | 85.8
sgRNA knockout: sgATF3, 100 nM | 98.9 | 93 | 88.4
sgRNA knockout: sgATF3, 1000 nM | 73.2 | 70.2 | 74.5
sgRNA knockout: sgATF3, 10000 nM | 79.2 | 37.4 | 56.6
sgRNA knockout: sgATF4, 10 nM | 89.1 | 78 | 78.9
sgRNA knockout: sgATF4, 100 nM | 85.5 | 90.5 | 105
sgRNA knockout: sgATF4, 1000 nM | 82.9 | 60 | 76.7
sgRNA knockout: sgATF4, 10000 nM | 69 | 29.9 | 66.2
sgRNA knockout: sgATF6, 10 nM | 91 | 89.6 | 69.3
sgRNA knockout: sgATF6, 100 nM | 99.8 | 80 | 108
sgRNA knockout: sgATF6, 1000 nM | 78.4 | 76.3 | 76.6
sgRNA knockout: sgATF6, 10000 nM | 73.7 | 32.2 | 52.9
sgRNA knockout: sgATG7, 10 nM | 85.9 | 74.5 | 77
sgRNA knockout: sgATG7, 100 nM | 98.7 | 110 | 66.5
sgRNA knockout: sgATG7, 1000 nM | 75.8 | 72.8 | 56.8
sgRNA knockout: sgATG7, 10000 nM | 77.5 | 33.4 | 56.3
sgRNA knockout: sgERN1, 10 nM | 86.7 | 73.5 | 85
sgRNA knockout: sgERN1, 100 nM | 95.1 | 94.4 | 93.3
sgRNA knockout: sgERN1, 1000 nM | 86.7 | 63.2 | 72.6
sgRNA knockout: sgERN1, 10000 nM | 65.3 | 30.7 | 63.9
sgRNA knockout: sgHSF1, 10 nM | 97.5 | 78.9 | –
sgRNA knockout: sgHSF1, 100 nM | 94 | 83.3 | –
sgRNA knockout: sgHSF1, 1000 nM | 92.1 | 52.3 | –
sgRNA knockout: sgHSF1, 10000 nM | 66.3 | 36 | –
sgRNA knockout: sgHSF2, 10 nM | 77.1 | 79.3 | 71.6
sgRNA knockout: sgHSF2, 100 nM | 87.2 | 101 | 88.4
sgRNA knockout: sgHSF2, 1000 nM | 94.6 | 79.6 | 83.5
sgRNA knockout: sgHSF2, 10000 nM | 69.01 | 29.5 | 64.8
sgRNA knockout: sgKEAP1, 10 nM | 93.7 | 78.4 | –
sgRNA knockout: sgKEAP1, 100 nM | 83.8 | 103 | –
sgRNA knockout: sgKEAP1, 1000 nM | 88 | 69.9 | –
sgRNA knockout: sgKEAP1, 10000 nM | 74.9 | 31.7 | –
sgRNA knockout: sgNFE2L2, 10 nM | 84.1 | 86.7 | 82.31
sgRNA knockout: sgNFE2L2, 100 nM | 90.797 | 83.2 | 94
sgRNA knockout: sgNFE2L2, 1000 nM | 77 | 67.4 | 76.6
sgRNA knockout: sgNFE2L2, 10000 nM | 89.6 | 35.91 | 53.6
sgRNA knockout: sgSLC35F2, 10 nM | 94.9 | 69 | 61.3
sgRNA knockout: sgSLC35F2, 100 nM | 98.7 | 94 | 71.6
sgRNA knockout: sgSLC35F2, 1000 nM | 86.5 | 63.1 | 57.1
sgRNA knockout: sgSLC35F2, 10000 nM | 66.9 | 29.1 | 70.7
sgRNA knockout: sgXBP1, 10 nM | 83.1 | 118 | 80.2
sgRNA knockout: sgXBP1, 100 nM | 100 | 91.4 | 88.1
sgRNA knockout: sgXBP1, 1000 nM | 82.45 | 67.585 | 61.8
sgRNA knockout: sgXBP1, 10000 nM | 77 | 25.3 | 54.5

O=C(c1ccc(/C=C/c2n[nH]c3ccccc23)cc1)N1CCNCC1 [KW2449]
relative cell number
Details | [1] | [2] | [3]
sgRNA knockout: sgATF3, 10 nM | 89.4 | 74.1 | 85
sgRNA knockout: sgATF3, 100 nM | 87.9 | 97.1 | 100
sgRNA knockout: sgATF3, 1000 nM | 93.5 | 109 | 53.8
sgRNA knockout: sgATF3, 10000 nM | 67.6 | 72.6 | 51.4
sgRNA knockout: sgATF4, 10 nM | 102 | 84.8 | 116
sgRNA knockout: sgATF4, 100 nM | 94.9 | 70.3 | 70.5
sgRNA knockout: sgATF4, 1000 nM | 105 | 92.4 | 56.4
sgRNA knockout: sgATF4, 10000 nM | 88.7 | 76.4 | 45.9
sgRNA knockout: sgATF6, 10 nM | 84.4 | 89.9 | 98.1
sgRNA knockout: sgATF6, 100 nM | 96.9 | 75.8 | 86.1
sgRNA knockout: sgATF6, 1000 nM | 100 | 99.2 | 74.5
sgRNA knockout: sgATF6, 10000 nM | 75.4 | 65.1 | 54.4
sgRNA knockout: sgATG7, 10 nM | 82.5 | 87.2 | 95.5
sgRNA knockout: sgATG7, 100 nM | 92.2 | 76.7 | 86.2
sgRNA knockout: sgATG7, 1000 nM | 106 | 95.6 | 64.8
sgRNA knockout: sgATG7, 10000 nM | 73 | 69.6 | 40.9
sgRNA knockout: sgERN1, 10 nM | 89.94 | 83.1 | 95.2
sgRNA knockout: sgERN1, 100 nM | 93.3 | 91 | 87.4
sgRNA knockout: sgERN1, 1000 nM | 97.2 | 118 | 53
sgRNA knockout: sgERN1, 10000 nM | 75.1 | 81.096 | 54.5
sgRNA knockout: sgHSF1, 10 nM | 101 | 87.1 | –
sgRNA knockout: sgHSF1, 100 nM | 94.5 | 70.3 | –
sgRNA knockout: sgHSF1, 1000 nM | 86.9 | 101 | –
sgRNA knockout: sgHSF1, 10000 nM | 69.5 | 62.1 | –
sgRNA knockout: sgHSF2, 10 nM | 81.1 | 84.7 | 85.8
sgRNA knockout: sgHSF2, 100 nM | 88.5 | 83.3 | 105
sgRNA knockout: sgHSF2, 1000 nM | 98 | 106 | 47.8
sgRNA knockout: sgHSF2, 10000 nM | 75.1 | 69.3 | 37.4
sgRNA knockout: sgKEAP1, 10 nM | 92.2 | 71.7 | –
sgRNA knockout: sgKEAP1, 100 nM | 87.6 | 80.8 | –
sgRNA knockout: sgKEAP1, 1000 nM | 88.5 | 93.9 | –
sgRNA knockout: sgKEAP1, 10000 nM | 90.9 | 76.4 | –
sgRNA knockout: sgNFE2L2, 10 nM | 105 | 83.08 | 113
sgRNA knockout: sgNFE2L2, 100 nM | 102.8 | 85.8 | 80.7
sgRNA knockout: sgNFE2L2, 1000 nM | 97.3 | 111 | 57.3
sgRNA knockout: sgNFE2L2, 10000 nM | 89.8 | 78.33 | 51.2
sgRNA knockout: sgSLC35F2, 10 nM | 83.7 | 80.6 | 63.9
sgRNA knockout: sgSLC35F2, 100 nM | 84.7 | 92.8 | 45
sgRNA knockout: sgSLC35F2, 1000 nM | 100 | 86.8 | 53.7
sgRNA knockout: sgSLC35F2, 10000 nM | 77.5 | 77.6 | 43.8
sgRNA knockout: sgXBP1, 10 nM | 99.4 | 76.6 | 102
sgRNA knockout: sgXBP1, 100 nM | 94.9 | 74.3 | 104
sgRNA knockout: sgXBP1, 1000 nM | 108 | 107 | 50.3
sgRNA knockout: sgXBP1, 10000 nM | 76.1 | 68.9 | 41.4
